From PMC8986865 come the findings set out here.

By UniProt entry, the sequences of proteins in these tests, tags left out.
UniProt P38398: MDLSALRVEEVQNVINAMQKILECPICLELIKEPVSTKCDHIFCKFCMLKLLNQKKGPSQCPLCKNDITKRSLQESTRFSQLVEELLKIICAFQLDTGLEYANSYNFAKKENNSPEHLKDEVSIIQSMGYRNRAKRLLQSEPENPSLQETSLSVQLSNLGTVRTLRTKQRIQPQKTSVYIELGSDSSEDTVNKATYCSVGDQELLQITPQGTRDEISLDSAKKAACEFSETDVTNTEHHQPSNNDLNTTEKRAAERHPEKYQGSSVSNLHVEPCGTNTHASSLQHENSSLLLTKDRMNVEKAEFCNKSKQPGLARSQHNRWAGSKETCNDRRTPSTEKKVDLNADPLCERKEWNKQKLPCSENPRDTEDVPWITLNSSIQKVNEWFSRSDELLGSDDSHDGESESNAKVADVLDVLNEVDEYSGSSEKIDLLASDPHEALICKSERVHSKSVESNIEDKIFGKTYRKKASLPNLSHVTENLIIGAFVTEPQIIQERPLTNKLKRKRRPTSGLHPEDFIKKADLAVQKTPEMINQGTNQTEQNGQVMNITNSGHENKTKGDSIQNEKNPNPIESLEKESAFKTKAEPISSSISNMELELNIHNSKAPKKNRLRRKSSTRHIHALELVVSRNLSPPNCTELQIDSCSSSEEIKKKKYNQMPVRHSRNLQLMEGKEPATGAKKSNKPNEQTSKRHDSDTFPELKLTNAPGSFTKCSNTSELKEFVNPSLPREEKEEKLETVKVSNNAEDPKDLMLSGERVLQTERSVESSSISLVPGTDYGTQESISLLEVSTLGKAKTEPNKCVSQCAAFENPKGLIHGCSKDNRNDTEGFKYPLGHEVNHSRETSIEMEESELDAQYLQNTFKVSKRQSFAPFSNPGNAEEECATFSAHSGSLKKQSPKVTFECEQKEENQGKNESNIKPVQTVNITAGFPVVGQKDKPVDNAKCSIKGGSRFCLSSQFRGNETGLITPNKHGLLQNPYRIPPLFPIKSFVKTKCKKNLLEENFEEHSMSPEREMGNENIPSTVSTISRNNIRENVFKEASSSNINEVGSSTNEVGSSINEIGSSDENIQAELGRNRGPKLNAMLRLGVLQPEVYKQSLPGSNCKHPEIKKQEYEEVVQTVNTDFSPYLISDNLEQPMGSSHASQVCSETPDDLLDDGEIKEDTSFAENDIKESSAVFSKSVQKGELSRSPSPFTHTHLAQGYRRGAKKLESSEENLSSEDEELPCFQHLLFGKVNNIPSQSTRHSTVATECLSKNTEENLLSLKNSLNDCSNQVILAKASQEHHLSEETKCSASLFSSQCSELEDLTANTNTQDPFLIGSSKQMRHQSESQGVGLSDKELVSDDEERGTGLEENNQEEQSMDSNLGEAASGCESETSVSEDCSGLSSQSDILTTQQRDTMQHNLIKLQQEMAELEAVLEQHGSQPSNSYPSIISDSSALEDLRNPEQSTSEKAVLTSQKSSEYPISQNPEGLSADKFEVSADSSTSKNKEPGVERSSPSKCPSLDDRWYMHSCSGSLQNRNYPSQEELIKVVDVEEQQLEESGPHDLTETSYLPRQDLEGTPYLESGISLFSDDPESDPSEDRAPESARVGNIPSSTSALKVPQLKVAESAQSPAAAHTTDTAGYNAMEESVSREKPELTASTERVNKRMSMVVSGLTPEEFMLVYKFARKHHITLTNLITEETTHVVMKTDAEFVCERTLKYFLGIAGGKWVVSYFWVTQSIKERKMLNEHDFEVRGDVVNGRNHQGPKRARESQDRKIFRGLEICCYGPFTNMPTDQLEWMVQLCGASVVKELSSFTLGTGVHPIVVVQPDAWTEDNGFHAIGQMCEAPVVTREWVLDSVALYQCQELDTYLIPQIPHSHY

No constants are given. Whether binding was seen depends on the method and setting. Binding seen in cells or lysates may run through a third protein. Some results given as binding are weak or reduced against the parent protein; the word gives no strength. For some assays here: Tags and fused reporters may be left off the sequences shown.

For test [1], the target named is BRCA1, endogenous (human (endogenous in HeLa)) (UniProt P38398). In words: co-IP; HeLa whole-cell lysates (RIPA buffer), cells untreated or 5 Gy IR for 3 h; immunoprecipitation with anti-HspBP1 (Fig. 3A) or anti-BRCA1 (Fig. 3B), western blot. On the technique in general: Immunoblotting shows a protein as a band on a membrane.
The target in another test is full length HA-BRCA1 (UniProt P38398). In words: co-IP; HEK293T co-transfected with HA-BRCA1 and GFP-HspBP1, 5 Gy IR for 3 h; whole-cell lysates, immunoprecipitation with anti-HA, western blot.

B1: Hsp70-binding protein 1 (HspBP1), endogenous (protein, UniProt Q9NZL4 1-359)
chain: MSDEGSRGSRLPLALPPASQGCSSGGGGGGSSAGGSGNSRPPRNLQGLLQMAITAGSEEPDPPPEPMSEERRQWLQEAMSAAFRGQREEVEQMKSCLRVLSQPMPPTAGEAEQAADQQEREGALELLADLCENMDNAADFCQLSGMHLLVGRYLEAGAAGLRWRAAQLIGTCSQNVAAIQEQVLGLGALRKLLRLLDRDACDTVRVKALFAISCLVREQEAGLLQFLRLDGFSVLMRAMQQQVQKLKVKSAFLLQNLLVGHPEHKGTLCSMGMVQQLVALVRTEHSPFHEHVLGALCSLVTDFPQGVRECREPELGLEELLRHRCQLLQQHEEYQEELEFCEKLLQTCFSSPADDSMDR
For B1, the binding result in test [1] is “binds”.

B2: GFP-HspBP1 (protein, UniProt Q9NZL4 1-359)
chain: MSDEGSRGSRLPLALPPASQGCSSGGGGGGSSAGGSGNSRPPRNLQGLLQMAITAGSEEPDPPPEPMSEERRQWLQEAMSAAFRGQREEVEQMKSCLRVLSQPMPPTAGEAEQAADQQEREGALELLADLCENMDNAADFCQLSGMHLLVGRYLEAGAAGLRWRAAQLIGTCSQNVAAIQEQVLGLGALRKLLRLLDRDACDTVRVKALFAISCLVREQEAGLLQFLRLDGFSVLMRAMQQQVQKLKVKSAFLLQNLLVGHPEHKGTLCSMGMVQQLVALVRTEHSPFHEHVLGALCSLVTDFPQGVRECREPELGLEELLRHRCQLLQQHEEYQEELEFCEKLLQTCFSSPADDSMDR
Take B2: the binding entry with full length HA-BRCA1 is on record as “binds”.
